PubChem BioAssay AID720505 | Drosophila RNAi Screening Center – 2013

- Screen: 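Genes needed for store-operated calcium entry in fly cells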 (primary screen)
- System: Drosophila S2R+ cells
- Reagents: long dsRNA against Drosophila genes
- Conditions: thapsigargin (2 µM) in calcium-free buffer to empty internal stores, then 2 mM calcium added back
- Detection: 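Stores emptied by 2 µM thapsigargin without calcium, then 2 mM calcium re-added; fluo-4 fluorescence followed by FLIPR in 384-well plates, per-well averaged endpoint, raw; two screen passes, some wells retested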
- Scale: calcium signal and retest calcium signal: higher = more calcium entry after store depletion
- Active means: 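Knock-downs counted as hits when calcium entry dropped relative to STIM1 positive and Rho1 negative controls present on each plate; roughly 1500 genes called, with reductions of differing size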
- Calls: active = called as lowering calcium entry; inactive = not called
The deposit covers about 20,000 reagents; this is an unselected part of those with a known target gene and a result. Of all reagents, about 2,100 (10%) were called active. 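Raw plate signals without normalisation; calls rest on control-based scores that were not deposited; replicate 2 separates called from uncalled poorly.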 Reagents against one gene are numbered here. Names joined by + are all predicted targets of the reagent. Not stated in the record: the amount of reagent, the time to read-out.

obst-G (obstructor-G): calcium signal, replicate 1 = 119; calcium signal, replicate 2 = 112; Outcome = inactive
Mer (Merlin): calcium signal, replicate 1 = 156; calcium signal, replicate 2 = 155; Outcome = inactive
Ent3 (Equilibrative nucleoside transporter 3): calcium signal, replicate 1 = 59.7; calcium signal, replicate 2 = 64.1; Outcome = active
scyl (scylla): calcium signal, replicate 1 = 90; calcium signal, replicate 2 = 112; Outcome = inactive
Map60 (Microtubule-associated protein 60): calcium signal, replicate 1 = 214; calcium signal, replicate 2 = 164; Outcome = inactive
CG32462 + asRNA:CR43426: calcium signal, replicate 1 = 129; calcium signal, replicate 2 = 124; Outcome = inactive
tsh (teashirt): calcium signal, replicate 1 = 99.1; calcium signal, replicate 2 = 116; Outcome = inactive
Mur89F (Mucin related 89F): calcium signal, replicate 1 = 131; calcium signal, replicate 2 = 123; Outcome = inactive
Vha16-1 (Vacuolar H[+] ATPase 16kD subunit 1): calcium signal, replicate 1 = 71.2; calcium signal, replicate 2 = 182; Outcome = active

Next part, starting with the last 2 of the part before.
Mur89F (Mucin related 89F): calcium signal, replicate 1 = 131; calcium signal, replicate 2 = 123; Outcome = inactive
Vha16-1 (Vacuolar H[+] ATPase 16kD subunit 1): calcium signal, replicate 1 = 71.2; calcium signal, replicate 2 = 182; Outcome = active
CG6602: calcium signal, replicate 1 = 76.9; calcium signal, replicate 2 = 65.8; Outcome = inactive
ct (cut): calcium signal, replicate 1 = 66.8; calcium signal, replicate 2 = 226; Outcome = active
FoxK (Forkhead box K): calcium signal, replicate 1 = 99.7; calcium signal, replicate 2 = 75.2; Outcome = inactive
mthl13 (methuselah-like 13): calcium signal, replicate 1 = 78.6; calcium signal, replicate 2 = 139; Outcome = inactive
tsu (tsunagi): calcium signal, replicate 1 = 148; calcium signal, replicate 2 = 138; Outcome = inactive
CG42449: calcium signal, replicate 1 = 133; calcium signal, replicate 2 = 78.8; retest calcium signal, replicate 1 = 5124; retest calcium signal, replicate 2 = 134; Outcome = inactive
CG15247: calcium signal, replicate 1 = 140; calcium signal, replicate 2 = 126; Outcome = inactive
Ir11a (Ionotropic receptor 11a): calcium signal, replicate 1 = 74.3; calcium signal, replicate 2 = 101; Outcome = active
Fst (Frost): calcium signal, replicate 1 = 122; calcium signal, replicate 2 = 115; Outcome = inactive
CG13640: calcium signal, replicate 1 = 108; calcium signal, replicate 2 = 90.1; Outcome = inactive
COX2 (retired record): calcium signal, replicate 1 = 180; calcium signal, replicate 2 = 81.6; Outcome = inactive
CG5568 #1: calcium signal, replicate 1 = 88.8; calcium signal, replicate 2 = 102; retest calcium signal, replicate 1 = 153; retest calcium signal, replicate 2 = 105; Outcome = inactive
CG5568 #2: calcium signal, replicate 1 = 88.2; calcium signal, replicate 2 = 83.2; Outcome = inactive
Ciao1: calcium signal, replicate 1 = 206; calcium signal, replicate 2 = 197; Outcome = inactive
milt (milton) #1: calcium signal, replicate 1 = 75.6; calcium signal, replicate 2 = 127; Outcome = inactive
milt (milton) #2: calcium signal, replicate 1 = 86.9; calcium signal, replicate 2 = 116; Outcome = inactive
milt (milton) #3: calcium signal, replicate 1 = 145; calcium signal, replicate 2 = 176; Outcome = inactive
PIG-B (Phosphatidylinositol glycan anchor biosynthesis class B) #1: calcium signal, replicate 1 = 80.9; calcium signal, replicate 2 = 108; retest calcium signal, replicate 1 = 149; retest calcium signal, replicate 2 = 109; Outcome = inactive
PIG-B (Phosphatidylinositol glycan anchor biosynthesis class B) #2: calcium signal, replicate 1 = 118; calcium signal, replicate 2 = 154; Outcome = inactive
